Laboratory results published in patent publication US20250283871A1, “COMPOSITIONS AND METHODS FOR MODULATING THE INTERACTION BETWEEN SS18-SSX FUSION ONCOPROTEIN AND NUCLEOSOMES” (Dana-Farber Cancer Institute, Inc., priority 2020, published 2025).

B1: SURF4 (protein, UniProt O15260 2-269, looked up)
Surfeit locus protein 4: GQNDLMGTAEDFADQFLRVTKQYLPHVARLCLISTFLEDGIRMWFQWSEQRDYIDTTWNCGYLLASSFVFLNLLGQLTGCVLVLSRNFVQYACFGLFGIIALQTIAYSILWDLKFLMRNLALGGGLLLLLAESRSEGKSMFAGVPTMRESSPKQYMQLGGRVLLVLMFMTLLHFDASFFSIVQNIVGTALMILVAIGFKTKLAALTLVVWLFAINVYFNAFWTIPVYKPMHDFLKYDFFQTMSVIGGLLLVVALGPGGVSMDEKKKEW
B2: SLC25A33 (protein, UniProt Q9BSK2 1-321, looked up)
Solute carrier family 25 …: MATGGQQKENTLLHLFAGGCGGTVGAIFTCPLEVIKTRLQSSRLALRTVYYPQVHLGTISGAGMVRPTSVTPGLFQVLKSILEKEGPKSLFRGLGPNLVGVAPSRAVYFACYSKAKEQFNGIFVPNSNIVHIFSAGSAAFITNSLMNPIWMVKTRMQLEQKVRGSKQMNTLQCARYVYQTEGIRGFYRGLTASYAGISETIICFAIYESLKKYLKEAPLASSANGTEKNSTSFFGLMAAAALSKGCASCIAYPHEVIRTRLREEGTKYKSFVQTARLVFREEGYLAFYRGLFAQLIRQIPNTAIVLSTYELIVYLLEDRTQ
B3: CPSF7 (protein, UniProt Q8N684 1-471, looked up)
Cleavage and polyadenylation …: MSEGVDLIDIYADEEFNQDPEFNNTDQIDLYDDVLTATSQPSDDRSSSTEPPPPVRQEPSPKPNNKTPAILYTYSGLRNRRAAVYVGSFSWWTTDQQLIQVIRSIGVYDVVELKFAENRANGQSKGYAEVVVASENSVHKLLELLPGKVLNGEKVDVRPATRQNLSQFEAQARKRECVRVPRGGIPPRAHSRDSSDSADGRATPSENLVPSSARVDKPPSVLPYFNRPPSALPLMGLPPPPIPPPPPLSSSFGVPPPPPGIHYQHLMPPPPRLPPHLAVPPPGAIPPALHLNPAFFPPPNATVGPPPDTYMKASAPYNHHGSRDSGPPPSTVSEAEFEDIMKRNRAISSSAISKAVSGASAGDYSDAIETLLTAIAVIKQSRVANDERCRVLISSLKDCLHGIEAKSYSVGASGSSSRKRHRSRERSPSRSRESSRRHRDLLHNEDRHDDYFQERNREHERHRDRERDRHH
B4: SFXN3 (protein, UniProt Q9BWM7 1-321, looked up)
Sideroflexin-3: MGELPLDINIQEPRWDQSTFLGRARHFFTVTDPRNLLLSGAQLEASRNIVQNYRAGVVTPGITEDQLWRAKYVYDSAFHPDTGEKVVLIGRMSAQVPMNMTITGCMLTFYRKTPTVVFWQWVNQSFNAIVNYSNRSGDTPITVRQLGTAYVSATTGAVATALGLKSLTKHLPPLVGRFVPFAAVAAANCINIPLMRQRELQVGIPVADEAGQRLGYSVTAAKQGIFQVVISRICMAIPAMAIPPLIMDTLEKKDFLKRRPWLGAPLQVGLVGFCLVFATPLCCALFPQKSSIHISNLEPELRAQIHEQNPSVEVVYYNKGL
B5: SPATA5 (protein, UniProt Q8NB90 1-893, looked up)
ATPase family gene 2 protein …: MSSKKNRKRLNQSAENGSSLPSAASSCAEARAPSAGSDFAATSGTLTVTNLLEKVDDKIPKTFQNSLIHLGLNTMKSANICIGRPVLLTSLNGKQEVYTAWPMAGFPGGKVGLSEMAQKNVGVRPGDAIQVQPLVGAVLQAEEMDVALSDKDMEINEEELTGCILRKLDGKIVLPGNFLYCTFYGRPYKLQVLRVKGADGMILGGPQSDSDTDAQRMAFEQSSMETSSLELSLQLSQLDLEDTQIPTSRSTPYKPIDDRITNKASDVLLDVTQSPGDGSGLMLEEVTGLKCNFESAREGNEQLTEEERLLKFSIGAKCNTDTFYFISSTTRVNFTEIDKNSKEQDNQFKVTYDMIGGLSSQLKAIREIIELPLKQPELFKSYGIPAPRGVLLYGPPGTGKTMIARAVANEVGAYVSVINGPEIISKFYGETEAKLRQIFAEATLRHPSIIFIDELDALCPKREGAQNEVEKRVVASLLTLMDGIGSEVSEGQVLVLGATNRPHALDAALRRPGRFDKEIEIGVPNAQDRLDILQKLLRRVPHLLTEAELLQLANSAHGYVGADLKVLCNEAGLCALRRILKKQPNLPDVKVAGLVKITLKDFLQAMNDIRPSAMREIAIDVPNVSWSDIGGLESIKLKLEQAVEWPLKHPESFIRMGIQPPKGVLLYGPPGCSKTMIAKALANESGLNFLAIKGPELMNKYVGESERAVRETFRKARAVAPSIIFFDELDALAVERGSSLGAGNVADRVLAQLLTEMDGIEQLKDVTILAATNRPDRIDKALMRPGRIDRIIYVPLPDAATRREIFKLQFHSMPVSNEVDLDELILQTDAYSGAEIVAVCREAALLALEEDIQANLIMKRHFTQALSTVTPRIPESLRRFYEDYQEKSGLHTL
B6: CEPT1 (protein, UniProt Q9Y6K0 1-416, looked up)
Choline/ethanolaminephosphotra …: MSGHRSTRKRCGDSHPESPVGFGHMSTTGCVLNKLFQLPTPPLSRHQLKRLEEHRYQSAGRSLLEPLMQGYWEWLVRRVPSWIAPNLITIIGLSINICTTILLVFYCPTATEQAPLWAYIACACGLFIYQSLDAIDGKQARRTNSSSPLGELFDHGCDSLSTVFVVLGTCIAVQLGTNPDWMFFCCFAGTFMFYCAHWQTYVSGTLRFGIIDVTEVQIFIIIMHLLAVIGGPPFWQSMIPVLNIQMKIFPALCTVAGTIFSCTNYFRVIFTGGVGKNGSTIAGTSVLSPFLHIGSVITLAAMIYKKSAVQLFEKHPCLYILTFGFVSAKITNKLVVAHMTKSEMHLHDTAFIGPALLFLDQYFNSFIDEYIVLWIALVFSFFDLIRYCVSVCNQIASHLHIHVFRIKVSTAHSNHH
B7: DLAT (protein, UniProt P10515 87-647, looked up)
Dihydrolipoyllysine-residue …: SLPPHQKVPLPSLSPTMQAGTIARWEKKEGDKINEGDLIAEVETDKATVGFESLEECYMAKILVAEGTRDVPIGAIICITVGKPEDIEAFKNYTLDSSAAPTPQAAPAPTPAATASPPTPSAQAPGSSYPPHMQVLLPALSPTMTMGTVQRWEKKVGEKLSEGDLLAEIETDKATIGFEVQEEGYLAKILVPEGTRDVPLGTPLCIIVEKEADISAFADYRPTEVTDLKPQVPPPTPPPVAAVPPTPQPLAPTPSAPCPATPAGPKGRVFVSPLAKKLAVEKGIDLTQVKGTGPDGRITKKDIDSFVPSKVAPAPAAVVPPTGPGMAPVPTGVFTDIPISNIRRVIAQRLMQSKQTIPHYYLSIDVNMGEVLLVRKELNKILEGRSKISVNDFIIKASALACLKVPEANSSWMDTVIRQNHVVDVSVAVSTPAGLITPIVFNAHIKGVETIANDVVSLATKAREGKLQPHEFQGGTFTISNLGMFGIKNFSAIINPPQACILAIGASEDKLVPADNEKGFDVASMMSVTLSCDHRVVDGAVGAQWLAEFRKYLEKPITMLL
B8: LPCAT4 (protein, UniProt Q643R3 1-524, looked up)
Lysophospholipid …: MSQGSPGDWAPLDPTPGPPASPNPFVHELHLSRLQRVKFCLLGALLAPIRVLLAFIVLFLLWPFAWLQVAGLSEEQLQEPITGWRKTVCHNGVLGLSRLLFFLLGFLRIRVRGQRASRLQAPVLVAAPHSTFFDPIVLLPCDLPKVVSRAENLSVPVIGALLRFNQAILVSRHDPASRRRVVEEVRRRATSGGKWPQVLFFPEGTCSNKKALLKFKPGAFIAGVPVQPVLIRYPNSLDTTSWAWRGPGVLKVLWLTASQPCSIVDVEFLPVYHPSPEESRDPTLYANNVQRVMAQALGIPATECEFVGSLPVIVVGRLKVALEPQLWELGKVLRKAGLSAGYVDAGAEPGRSRMISQEEFARQLQLSDPQTVAGAFGYFQQDTKGLVDFRDVALALAALDGGRSLEELTRLAFELFAEEQAEGPNRLLYKDGFSTILHLLLGSPHPAATALHAELCQAGSSQGLSLCQFQNFSLHDPLYGKLFSTYLRPPHTSRGTSQTPNASSPGNPTALANGTVQAPKQKGD
B9: TCP11L2 (protein, UniProt Q8N4U5 1-519, looked up)
T-complex protein 11-like …: MPFNGEKQCVGEDQPSDSDSSRFSESMASLSDYECSRQSFASDSSSKSSSPASTSPPRVVTFDEVMATARNLSNLTLAHEIAVNENFQLKQEALPEKSLAGRVKHIVHQAFWDVLDSELNADPPEFEHAIKLFEEIREILLSFLTPGGNRLRNQICEVLDTDLIRQQAEHSAVDIQGLANYVISTMGKLCAPVRDNDIRELKATGNIVEVLRQIFHVLDLMQMDMANFTIMSLRPHLQRQLVEYERTKFQEILEETPSALDQTTEWIKESVNEELFSLSESALTPGAENTSKPSLSPTLVLNNSYLKLLQWDYQKKELPETLMTDGARLQELTEKLNQLKIIACLSLITNNMVGAITGGLPELASRLTRISAVLLEGMNKETFNLKEVLNSIGIQTCVEVNKTLMERGLPTLNAEIQANLIGQFSSIEEEDNPIWSLIDKRIKLYMRRLLCLPSPQKCMPPMPGGLAVIQQELEALGSQYANIVNLNKQVYGPFYANILRKLLFNEEAMGKVDASPPTN
B10: TADA2B (protein, UniProt Q86TJ2 1-420, looked up)
Transcriptional adapter 2-beta: MAELGKKYCVYCLAEVSPLRFRCTECQDIELCPECFSAGAEIGHHRRYHGYQLVDGGRFTLWGPEAEGGWTSREEQLLLDAIEQFGFGNWEDMAAHVGASRTPQEVMEHYVSMYIHGNLGKACIPDTIPNRVTDHTCPSGGPLSPSLTTPLPPLDISVAEQQQLGYMPLRDDYEIEYDQDAETLISGLSVNYDDDDVEIELKRAHVDMYVRKLKERQRRKNIARDYNLVPAFLGKDKKEKEKALKRKITKEEKELRLKLRPLYQFMSCKEFDDLFENMHKEKMLRAKIRELQRYRRNGITKMEESAEYEAARHKREKRKENKNLAGSKRGKEDGKDSEFAAIENLPGFELLSDREKVLCSSLNLSPARYVTVKTIIIKDHLQKRQGIPSKSRLPSYLDKVLKKRILNFLTESGWISRDAS
B11: CCDC47 (protein, UniProt Q96A33 21-483, looked up)
PAT complex subunit CCDC47: KFDDFEDEEDIVEYDDNDFAEFEDVMEDSVTESPQRVIITEDDEDETTVELEGQDENQEGDFEDADTQEGDTESEPYDDEEFEGYEDKPDTSSSKNKDPITIVDVPAHLQNSWESYYLEILMVTGLLAYIMNYIIGKNKNSRLAQAWFNTHRELLESNFTLVGDDGTNKEATSTGKLNQENEHIYNLWCSGRVCCEGMLIQLRFLKRQDLLNVLARMMRPVSDQVQIKVTMNDEDMDTYVFAVGTRKALVRLQKEMQDLSEFCSDKPKSGAKYGLPDSLAILSEMGEVTDGMMDTKMVHFLTHYADKIESVHFSDQFSGPKIMQEEGQPLKLPDTKRTLLFTFNVPGSGNTYPKDMEALLPLMNMVIYSIDKAKKFRLNREGKQKADKNRARVEENFLKLTHVQRQEAAQSRREEKKRAEKERIMNEEDPEKQRRLEEAALRREQKKLEKKQMKMKQIKVKAM

Each molecule was assayed on BAF complex subunits and histone proteins (assay: Mass spectrometry proteomics of purified HA-SS18 WT and HA-SS18-SSX1 complexes (Tables 5A-5E)). Conditions: HA-SS18SSX1_NE_peptides (Table 5B); HA-SS18-SSX1 BAF complex purification from soluble nuclear extract, HEK-293T.
Set-up: species or system human
With B1 the “Total (peptides)” value was 1 and the “Unique (peptides)” value was 1. In the case of B2, the “Total (peptides)” value is reported as 1 and the “Unique (peptides)” value is reported as 1. B3 was tested, and the “Total (peptides)” value was 1 and the “Unique (peptides)” value was 1. B4 was tested, and the “Total (peptides)” value was 1 and the “Unique (peptides)” value was 1. B5 was tested, and the “Total (peptides)” value was 1 and the “Unique (peptides)” value was 1. With B6 the “Total (peptides)” value was 1 and the “Unique (peptides)” value was 1. For B7, the “Total (peptides)” value was 1 and the “Unique (peptides)” value was 1. B8 was tested, and the “Total (peptides)” value was 1 and the “Unique (peptides)” value was 1. For B9, the “Total (peptides)” value was 1 and the “Unique (peptides)” value was 1. For B10, the “Total (peptides)” value was 1 and the “Unique (peptides)” value was 1.

Same assay, conditions: HA-SS18SSX1 purification, NE (soluble nuclear extract) fraction, HEK-293T; peptides per identified protein
With B11 the “Total (total peptides)” value was 13 and the “Unique (unique peptides)” value was 11.

Same assay, conditions: HA-SS18WT_NE_peptides: HA-SS18 WT complexes purified from nuclear extract (NE), HEK-293T; label = protein identified (Gene Symbol)
With B4 the “Total (peptides)” value was 3 and the “Unique (peptides)” value was 3. For B11, the “Total (peptides)” value was 12 and the “Unique (peptides)” value was 12.

Same assay, conditions: HA-SS18WT_NE_peptides: proteins co-purified with HA-SS18 WT from nuclear extract (NE), HEK-293T
B3 was tested, and the “Total (peptides)” value was 2 and the “Unique (peptides)” value was 2. With B5 the “Total (peptides)” value was 1 and the “Unique (peptides)” value was 1. B9 was tested, and the “Total (peptides)” value was 1 and the “Unique (peptides)” value was 1. For B10, the “Total (peptides)” value was 2 and the “Unique (peptides)” value was 2.
